Results on one substance are retold here after publication doi:10.1101/2025.10.26.684708.

These are yes or no findings as the source states them, for the method shown. In cells and extracts the contact can be indirect.

The assay deals with T1, endogenous UCP1 of mouse brown adipose tissue (mouse (endogenous in BAT)) (UniProt P12242).
T1 sequence: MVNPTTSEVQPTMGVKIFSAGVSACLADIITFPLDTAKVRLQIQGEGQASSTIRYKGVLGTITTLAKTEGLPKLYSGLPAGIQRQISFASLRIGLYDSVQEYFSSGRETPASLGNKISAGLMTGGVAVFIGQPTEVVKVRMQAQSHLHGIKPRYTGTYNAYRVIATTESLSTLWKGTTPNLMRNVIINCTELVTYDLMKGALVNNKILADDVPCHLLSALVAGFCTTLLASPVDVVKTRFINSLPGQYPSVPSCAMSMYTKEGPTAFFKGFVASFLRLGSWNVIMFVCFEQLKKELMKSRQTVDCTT
Briefly: co-IP.

Regarding β-TrCP, the binding result is “no binding”.
